No constants are given. Whether binding was seen depends on the method and setting. In cells and extracts the contact can be indirect. Some entries that bind do so weakly or less than the wild type.
Molecular target: Smurf2 (mouse (endogenous in MEFs)) (UniProt A2A5Z6)
Experiment: co-IP; MEF lysates (500 µg) of WT and SARA mutant MEFs immunoprecipitated with Smurf2 antibody and blotted with the indicated antibodies (Figure 7B lower panel, Figure 7D)

Sequences of proteins named here, by UniProt entry; tags and fusion partners are left off.
UniProt A2A5Z6: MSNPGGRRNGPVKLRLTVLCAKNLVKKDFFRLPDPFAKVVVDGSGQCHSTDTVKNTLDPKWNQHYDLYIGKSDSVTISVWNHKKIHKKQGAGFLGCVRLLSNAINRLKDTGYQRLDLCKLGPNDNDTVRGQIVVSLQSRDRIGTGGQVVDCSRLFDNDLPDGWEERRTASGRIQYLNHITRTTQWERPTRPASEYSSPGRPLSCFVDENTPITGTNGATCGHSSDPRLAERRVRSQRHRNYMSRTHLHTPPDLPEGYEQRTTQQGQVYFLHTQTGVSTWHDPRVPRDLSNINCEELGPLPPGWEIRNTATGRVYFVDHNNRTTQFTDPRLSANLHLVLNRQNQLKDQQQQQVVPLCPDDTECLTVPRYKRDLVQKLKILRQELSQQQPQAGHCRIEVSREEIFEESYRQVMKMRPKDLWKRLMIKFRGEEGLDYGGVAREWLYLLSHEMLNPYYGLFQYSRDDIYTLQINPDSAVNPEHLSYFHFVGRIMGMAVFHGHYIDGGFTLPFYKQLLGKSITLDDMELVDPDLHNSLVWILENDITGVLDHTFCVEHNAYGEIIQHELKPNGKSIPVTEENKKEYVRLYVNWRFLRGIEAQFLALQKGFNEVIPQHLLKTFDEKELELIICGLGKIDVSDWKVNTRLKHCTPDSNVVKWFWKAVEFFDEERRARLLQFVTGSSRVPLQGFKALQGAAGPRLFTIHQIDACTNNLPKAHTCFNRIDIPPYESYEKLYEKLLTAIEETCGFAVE
UniProt Q62432: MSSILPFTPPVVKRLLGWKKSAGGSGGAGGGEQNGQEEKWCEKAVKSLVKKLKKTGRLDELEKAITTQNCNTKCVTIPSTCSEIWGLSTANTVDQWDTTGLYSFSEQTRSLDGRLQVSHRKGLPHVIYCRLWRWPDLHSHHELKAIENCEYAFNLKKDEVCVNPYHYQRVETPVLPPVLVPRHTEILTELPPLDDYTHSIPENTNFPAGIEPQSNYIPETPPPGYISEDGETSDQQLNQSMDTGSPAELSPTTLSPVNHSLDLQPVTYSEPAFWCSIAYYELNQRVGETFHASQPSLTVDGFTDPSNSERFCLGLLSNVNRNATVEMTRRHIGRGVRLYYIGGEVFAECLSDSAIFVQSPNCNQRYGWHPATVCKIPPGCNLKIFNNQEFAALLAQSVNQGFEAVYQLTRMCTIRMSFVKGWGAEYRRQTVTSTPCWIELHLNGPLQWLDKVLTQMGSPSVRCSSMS

binding: binds
Substance: Smad2 (from UniProt Q62432 1-467)

— article PMC4149420
